# The other results are listed elsewhere or left out.
# Sequences of proteins named here, by UniProt entry; tags and fusion partners are left off. A change or cut given only in a name is not applied to a line headed by its entry.
# UniProt Q9Y5Y0: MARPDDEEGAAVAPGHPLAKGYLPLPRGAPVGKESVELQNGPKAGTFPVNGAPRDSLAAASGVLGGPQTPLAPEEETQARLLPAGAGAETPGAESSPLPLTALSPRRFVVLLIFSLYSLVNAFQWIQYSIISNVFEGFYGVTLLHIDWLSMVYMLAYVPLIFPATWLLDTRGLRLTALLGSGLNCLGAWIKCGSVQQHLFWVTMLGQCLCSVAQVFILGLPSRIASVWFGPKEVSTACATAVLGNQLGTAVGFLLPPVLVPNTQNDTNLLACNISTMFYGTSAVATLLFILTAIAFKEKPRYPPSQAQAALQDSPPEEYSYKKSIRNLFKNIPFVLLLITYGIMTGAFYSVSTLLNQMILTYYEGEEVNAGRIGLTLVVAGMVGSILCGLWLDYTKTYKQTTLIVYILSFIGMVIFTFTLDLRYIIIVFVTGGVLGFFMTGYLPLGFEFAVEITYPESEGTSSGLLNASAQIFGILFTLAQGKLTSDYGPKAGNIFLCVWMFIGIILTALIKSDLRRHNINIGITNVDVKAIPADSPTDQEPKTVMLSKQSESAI
# UniProt Q8WUF8: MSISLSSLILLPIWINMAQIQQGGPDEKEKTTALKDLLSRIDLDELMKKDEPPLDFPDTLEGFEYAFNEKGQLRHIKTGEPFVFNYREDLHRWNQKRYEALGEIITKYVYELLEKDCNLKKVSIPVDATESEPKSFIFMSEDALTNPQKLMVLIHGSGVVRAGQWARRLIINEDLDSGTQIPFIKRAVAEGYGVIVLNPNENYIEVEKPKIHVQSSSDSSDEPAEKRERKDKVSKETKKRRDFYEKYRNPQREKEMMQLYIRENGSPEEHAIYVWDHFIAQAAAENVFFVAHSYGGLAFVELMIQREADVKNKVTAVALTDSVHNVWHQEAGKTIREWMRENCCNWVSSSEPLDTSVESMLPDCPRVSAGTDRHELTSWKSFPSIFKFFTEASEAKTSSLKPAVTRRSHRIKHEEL
# UniProt Q13643: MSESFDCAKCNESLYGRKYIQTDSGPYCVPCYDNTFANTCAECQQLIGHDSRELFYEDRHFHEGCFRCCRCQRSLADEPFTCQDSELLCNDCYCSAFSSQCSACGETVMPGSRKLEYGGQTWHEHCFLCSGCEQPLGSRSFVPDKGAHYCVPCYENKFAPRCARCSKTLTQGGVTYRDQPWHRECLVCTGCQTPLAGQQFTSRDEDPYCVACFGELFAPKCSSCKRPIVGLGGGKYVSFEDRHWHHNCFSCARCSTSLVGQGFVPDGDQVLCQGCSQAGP
# UniProt Q9NXK8: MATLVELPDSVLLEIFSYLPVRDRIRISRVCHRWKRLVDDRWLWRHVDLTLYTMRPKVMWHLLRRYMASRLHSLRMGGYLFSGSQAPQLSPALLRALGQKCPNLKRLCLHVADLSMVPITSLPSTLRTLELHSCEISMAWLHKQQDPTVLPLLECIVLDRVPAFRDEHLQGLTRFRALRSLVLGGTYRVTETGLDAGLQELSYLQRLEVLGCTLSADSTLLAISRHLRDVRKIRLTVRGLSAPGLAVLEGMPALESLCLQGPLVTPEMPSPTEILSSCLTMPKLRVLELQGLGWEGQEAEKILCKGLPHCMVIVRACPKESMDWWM
# UniProt Q01844: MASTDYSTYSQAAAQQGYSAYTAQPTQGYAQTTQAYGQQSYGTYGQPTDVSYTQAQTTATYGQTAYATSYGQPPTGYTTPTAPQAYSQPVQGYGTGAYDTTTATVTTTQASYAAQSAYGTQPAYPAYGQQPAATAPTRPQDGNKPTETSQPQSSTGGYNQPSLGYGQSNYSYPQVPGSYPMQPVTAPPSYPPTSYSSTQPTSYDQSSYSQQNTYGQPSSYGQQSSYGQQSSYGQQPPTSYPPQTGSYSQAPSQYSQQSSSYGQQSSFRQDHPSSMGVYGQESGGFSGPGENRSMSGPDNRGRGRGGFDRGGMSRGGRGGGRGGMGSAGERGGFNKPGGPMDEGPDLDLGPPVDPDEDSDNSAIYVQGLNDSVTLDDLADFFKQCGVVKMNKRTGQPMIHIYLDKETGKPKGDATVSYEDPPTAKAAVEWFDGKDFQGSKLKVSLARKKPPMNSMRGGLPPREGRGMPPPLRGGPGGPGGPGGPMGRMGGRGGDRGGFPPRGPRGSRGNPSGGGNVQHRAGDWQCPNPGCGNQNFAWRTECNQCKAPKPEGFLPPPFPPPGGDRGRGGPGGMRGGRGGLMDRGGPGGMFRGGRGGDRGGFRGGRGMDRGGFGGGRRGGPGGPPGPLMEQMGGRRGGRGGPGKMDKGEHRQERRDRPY
# UniProt Q10472: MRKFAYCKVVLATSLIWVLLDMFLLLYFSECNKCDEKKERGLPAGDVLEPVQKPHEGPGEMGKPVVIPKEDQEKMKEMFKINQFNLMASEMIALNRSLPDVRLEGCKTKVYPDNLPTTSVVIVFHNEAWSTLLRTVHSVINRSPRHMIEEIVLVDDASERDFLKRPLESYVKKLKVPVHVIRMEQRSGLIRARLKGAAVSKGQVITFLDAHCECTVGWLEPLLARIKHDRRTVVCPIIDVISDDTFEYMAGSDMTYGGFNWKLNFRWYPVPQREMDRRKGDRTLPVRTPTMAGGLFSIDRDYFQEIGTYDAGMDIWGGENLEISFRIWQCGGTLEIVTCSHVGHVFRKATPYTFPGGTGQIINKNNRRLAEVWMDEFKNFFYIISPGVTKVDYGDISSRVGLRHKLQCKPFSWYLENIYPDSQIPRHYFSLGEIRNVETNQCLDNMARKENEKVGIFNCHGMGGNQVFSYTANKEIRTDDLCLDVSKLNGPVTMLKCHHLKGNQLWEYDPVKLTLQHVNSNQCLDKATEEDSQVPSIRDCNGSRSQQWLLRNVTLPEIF
# UniProt Q01469, whole entry: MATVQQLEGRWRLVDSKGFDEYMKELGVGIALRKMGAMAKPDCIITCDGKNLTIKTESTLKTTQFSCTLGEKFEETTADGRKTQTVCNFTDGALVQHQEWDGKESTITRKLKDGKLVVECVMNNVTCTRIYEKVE
# UniProt Q96SL8: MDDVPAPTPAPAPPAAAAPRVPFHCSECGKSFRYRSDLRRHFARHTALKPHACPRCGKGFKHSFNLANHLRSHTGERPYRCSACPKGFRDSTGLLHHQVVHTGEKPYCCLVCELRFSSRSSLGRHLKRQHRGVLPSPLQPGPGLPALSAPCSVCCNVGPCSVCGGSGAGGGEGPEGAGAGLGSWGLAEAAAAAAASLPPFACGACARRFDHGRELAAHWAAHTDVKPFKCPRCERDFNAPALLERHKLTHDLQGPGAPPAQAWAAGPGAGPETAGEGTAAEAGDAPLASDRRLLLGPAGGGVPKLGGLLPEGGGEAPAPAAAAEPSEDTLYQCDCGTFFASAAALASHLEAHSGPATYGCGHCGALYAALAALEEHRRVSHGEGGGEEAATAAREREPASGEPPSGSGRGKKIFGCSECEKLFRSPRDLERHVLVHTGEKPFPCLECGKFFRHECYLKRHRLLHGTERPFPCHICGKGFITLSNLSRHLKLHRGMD
# UniProt P04062: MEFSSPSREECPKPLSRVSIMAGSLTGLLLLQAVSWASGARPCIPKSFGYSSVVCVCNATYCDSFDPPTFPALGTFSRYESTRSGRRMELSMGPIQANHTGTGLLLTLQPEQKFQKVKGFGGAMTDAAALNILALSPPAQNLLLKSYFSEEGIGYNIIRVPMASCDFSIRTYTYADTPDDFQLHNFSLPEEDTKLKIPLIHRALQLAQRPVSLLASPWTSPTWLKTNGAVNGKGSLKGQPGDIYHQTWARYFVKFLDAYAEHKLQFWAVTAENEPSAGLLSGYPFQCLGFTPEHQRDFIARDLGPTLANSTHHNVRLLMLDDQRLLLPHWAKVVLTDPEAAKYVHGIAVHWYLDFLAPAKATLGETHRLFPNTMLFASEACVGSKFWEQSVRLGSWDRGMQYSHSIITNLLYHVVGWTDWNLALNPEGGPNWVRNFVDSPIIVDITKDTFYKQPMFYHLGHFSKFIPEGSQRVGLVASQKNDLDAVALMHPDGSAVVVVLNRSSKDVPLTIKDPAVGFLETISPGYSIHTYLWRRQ
# UniProt Q5D862: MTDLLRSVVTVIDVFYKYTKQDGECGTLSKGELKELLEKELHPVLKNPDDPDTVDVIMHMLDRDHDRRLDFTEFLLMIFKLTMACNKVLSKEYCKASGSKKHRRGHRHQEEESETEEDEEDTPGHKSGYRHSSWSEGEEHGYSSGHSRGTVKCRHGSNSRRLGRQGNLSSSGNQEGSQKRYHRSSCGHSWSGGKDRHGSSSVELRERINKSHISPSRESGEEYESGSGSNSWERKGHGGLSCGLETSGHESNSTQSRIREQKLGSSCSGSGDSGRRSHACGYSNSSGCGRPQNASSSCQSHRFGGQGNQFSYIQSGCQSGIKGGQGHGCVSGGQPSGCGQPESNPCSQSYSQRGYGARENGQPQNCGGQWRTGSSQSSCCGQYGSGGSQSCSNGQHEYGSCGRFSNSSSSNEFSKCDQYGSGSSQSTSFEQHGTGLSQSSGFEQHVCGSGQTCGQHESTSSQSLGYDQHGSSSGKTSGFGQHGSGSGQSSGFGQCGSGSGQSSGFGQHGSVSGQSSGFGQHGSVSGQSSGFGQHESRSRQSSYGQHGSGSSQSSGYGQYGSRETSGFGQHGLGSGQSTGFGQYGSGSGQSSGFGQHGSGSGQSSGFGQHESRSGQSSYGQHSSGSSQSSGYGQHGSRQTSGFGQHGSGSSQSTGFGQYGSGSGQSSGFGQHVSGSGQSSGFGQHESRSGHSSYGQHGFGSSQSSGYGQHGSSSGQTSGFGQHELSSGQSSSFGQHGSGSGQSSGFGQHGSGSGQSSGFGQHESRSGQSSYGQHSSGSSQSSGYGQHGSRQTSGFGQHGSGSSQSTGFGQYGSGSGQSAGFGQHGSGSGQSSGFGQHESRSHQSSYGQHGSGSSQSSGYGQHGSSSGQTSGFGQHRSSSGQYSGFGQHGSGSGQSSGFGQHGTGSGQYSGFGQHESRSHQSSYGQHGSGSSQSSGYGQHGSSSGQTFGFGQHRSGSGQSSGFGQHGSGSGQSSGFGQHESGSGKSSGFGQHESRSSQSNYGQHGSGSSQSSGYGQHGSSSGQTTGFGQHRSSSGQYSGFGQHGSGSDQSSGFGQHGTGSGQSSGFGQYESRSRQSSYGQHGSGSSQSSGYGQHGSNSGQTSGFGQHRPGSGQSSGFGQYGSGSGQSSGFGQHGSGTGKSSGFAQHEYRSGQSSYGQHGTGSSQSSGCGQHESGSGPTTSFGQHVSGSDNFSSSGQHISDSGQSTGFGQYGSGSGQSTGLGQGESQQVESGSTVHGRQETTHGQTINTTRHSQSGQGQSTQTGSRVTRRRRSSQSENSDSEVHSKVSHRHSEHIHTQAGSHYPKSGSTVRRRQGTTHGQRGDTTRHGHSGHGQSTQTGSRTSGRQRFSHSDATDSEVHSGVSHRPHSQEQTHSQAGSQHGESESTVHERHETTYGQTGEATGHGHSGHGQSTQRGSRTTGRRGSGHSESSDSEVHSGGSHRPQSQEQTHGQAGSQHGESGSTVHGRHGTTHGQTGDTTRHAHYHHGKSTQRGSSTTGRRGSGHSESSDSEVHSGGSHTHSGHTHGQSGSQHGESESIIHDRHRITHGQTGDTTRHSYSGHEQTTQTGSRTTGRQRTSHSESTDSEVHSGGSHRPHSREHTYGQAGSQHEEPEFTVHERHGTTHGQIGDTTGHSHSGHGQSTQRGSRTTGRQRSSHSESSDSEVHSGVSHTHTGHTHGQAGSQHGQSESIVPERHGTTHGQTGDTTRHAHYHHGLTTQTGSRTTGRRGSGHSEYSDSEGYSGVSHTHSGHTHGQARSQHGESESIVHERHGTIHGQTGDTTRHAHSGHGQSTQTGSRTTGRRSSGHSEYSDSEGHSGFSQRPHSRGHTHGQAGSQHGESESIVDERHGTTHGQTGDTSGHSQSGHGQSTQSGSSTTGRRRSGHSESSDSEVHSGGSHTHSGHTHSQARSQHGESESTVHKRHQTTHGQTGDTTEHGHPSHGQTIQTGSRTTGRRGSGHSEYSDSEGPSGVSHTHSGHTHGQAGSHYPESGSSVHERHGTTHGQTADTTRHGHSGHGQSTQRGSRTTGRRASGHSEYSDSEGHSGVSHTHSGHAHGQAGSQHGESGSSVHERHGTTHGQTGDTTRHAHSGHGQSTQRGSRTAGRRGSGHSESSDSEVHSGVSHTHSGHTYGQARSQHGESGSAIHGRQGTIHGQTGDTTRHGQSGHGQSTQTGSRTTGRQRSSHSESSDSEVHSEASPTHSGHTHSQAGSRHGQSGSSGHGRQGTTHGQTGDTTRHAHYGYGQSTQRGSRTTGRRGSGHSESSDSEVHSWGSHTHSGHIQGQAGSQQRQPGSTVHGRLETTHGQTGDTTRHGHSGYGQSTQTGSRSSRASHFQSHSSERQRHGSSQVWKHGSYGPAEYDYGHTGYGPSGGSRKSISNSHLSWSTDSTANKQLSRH
# UniProt Q6P587: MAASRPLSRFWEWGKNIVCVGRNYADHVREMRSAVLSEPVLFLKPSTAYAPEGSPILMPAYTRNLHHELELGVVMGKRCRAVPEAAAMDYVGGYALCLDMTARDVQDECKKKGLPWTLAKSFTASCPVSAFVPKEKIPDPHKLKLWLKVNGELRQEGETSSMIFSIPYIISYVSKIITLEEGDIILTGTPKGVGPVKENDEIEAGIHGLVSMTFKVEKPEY
# Compound: COc1ccc(Cn2ccc3ccc(C(=O)NO)cc32)cc1
# Assay: dose-dependent thermal stabilisation call (2D-TPP, DLPTP, 10% FDR) (binary (1 = stabilised)); higher = stabilised by the compound
# Settings: system: HL-60 intact cells; concentration range 0.04-10 µM
row,Target,dose-dependent thermal stabilisation call
1,FLVCR1 (UniProt Q9Y5Y0),inactive: 0
2,ETHE1 (UniProt O95571),inactive: 0
3,FKBP4 (UniProt Q02790),inactive: 0
4,FAM172A (UniProt Q8WUF8),inactive: 0
5,FAM185A (UniProt Q8N0U4),inactive: 0
6,FTSJ3 (UniProt Q8IY81),inactive: 0
7,FHL3 (UniProt Q13643),inactive: 0
8,FUSIP1 (UniProt O75494),inactive: 0
9,FBXL12 (UniProt Q9NXK8),inactive: 0
10,FAM160B1 (UniProt Q5W0V3),inactive: 0
11,F13A1 (UniProt P00488),inactive: 0
12,GALNT11 (UniProt Q8NCW6),inactive: 0
13,EWSR1 (UniProt Q01844),inactive: 0
14,EZH2 (UniProt Q15910),inactive: 0
15,GALNT1 (UniProt Q10472),inactive: 0
16,FAM152B (UniProt Q6ICB0),inactive: 0
17,FABP5 (UniProt Q01469),inactive: 0
18,GALK1 (UniProt P51570),inactive: 0
19,FBXO45 (UniProt P0C2W1),inactive: 0

row,Target,dose-dependent thermal stabilisation call
1,EXOSC1 (UniProt Q9Y3B2),inactive: 0
2,FYN (UniProt P06241),inactive: 0
3,FASTKD5 (UniProt Q7L8L6),inactive: 0
4,FIZ1 (UniProt Q96SL8),inactive: 0
5,FCGR2C (UniProt P31995),inactive: 0
6,EXOC7 (UniProt Q9UPT5),inactive: 0
7,FBXO9 (UniProt Q9UK97),inactive: 0
8,FAM46C (UniProt Q5VWP2),inactive: 0
9,FOXK2 (UniProt Q01167),inactive: 0
10,FAM108B1 (UniProt Q5VST6),inactive: 0
11,FAM160A2 (UniProt Q8N612),inactive: 0
12,FAM62B (UniProt A0FGR8),inactive: 0
13,FAM29A (UniProt Q7Z4H7),inactive: 0
14,FLG (UniProt P20930),inactive: 0
15,GCAT (UniProt O75600),inactive: 0
16,FLJ22167,inactive: 0
17,GBA (UniProt P04062),inactive: 0
18,FLG2 (UniProt Q5D862),inactive: 0
19,FAHD1 (UniProt Q6P587),inactive: 0

# From the supplement of paper PMC7666118
